Laboratory results published in patent US9908919B2 (priority 2013, dated 2018).

Assay: general procedure: Fmoc solid-phase peptide synthesis; 2-chlorotrityl chloride-PS-resin (C-terminal acids); Phenethylamine-AMEBA-PS-resin (N-phenethyl carboxamides)
Details: whole synthesis, scale 0.10 mmol

pE-R-C*-R-L-C*-H-K-G-P-Nle-P-F-OH
isolated mass: 36.8 mg
